Results reported in article PMC11077363.
No constants are given. Whether binding was seen depends on the method and setting. In cells and extracts the contact can be indirect. Some binding calls cover weakened binding; strength is not graded here.

Amino acid sequences for entries named in this document (tags omitted). Residues count along the entry.
UniProt Q99836: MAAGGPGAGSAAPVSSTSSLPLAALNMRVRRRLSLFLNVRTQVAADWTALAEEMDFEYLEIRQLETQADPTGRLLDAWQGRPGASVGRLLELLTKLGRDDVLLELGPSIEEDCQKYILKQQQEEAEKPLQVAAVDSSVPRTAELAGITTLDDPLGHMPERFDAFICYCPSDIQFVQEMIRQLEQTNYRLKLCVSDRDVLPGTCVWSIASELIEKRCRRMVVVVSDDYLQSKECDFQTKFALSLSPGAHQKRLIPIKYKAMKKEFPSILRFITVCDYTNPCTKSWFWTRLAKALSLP
UniProt Q9Y4L5: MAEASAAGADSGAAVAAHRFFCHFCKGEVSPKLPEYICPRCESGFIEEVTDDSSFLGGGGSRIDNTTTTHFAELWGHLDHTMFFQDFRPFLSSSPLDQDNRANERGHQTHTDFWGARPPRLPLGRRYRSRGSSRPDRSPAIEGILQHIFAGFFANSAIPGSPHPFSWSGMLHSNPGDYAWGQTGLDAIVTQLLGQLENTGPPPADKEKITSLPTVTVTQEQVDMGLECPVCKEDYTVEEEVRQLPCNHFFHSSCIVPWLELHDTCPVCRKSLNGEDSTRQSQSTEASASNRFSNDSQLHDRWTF
UniProt P51617: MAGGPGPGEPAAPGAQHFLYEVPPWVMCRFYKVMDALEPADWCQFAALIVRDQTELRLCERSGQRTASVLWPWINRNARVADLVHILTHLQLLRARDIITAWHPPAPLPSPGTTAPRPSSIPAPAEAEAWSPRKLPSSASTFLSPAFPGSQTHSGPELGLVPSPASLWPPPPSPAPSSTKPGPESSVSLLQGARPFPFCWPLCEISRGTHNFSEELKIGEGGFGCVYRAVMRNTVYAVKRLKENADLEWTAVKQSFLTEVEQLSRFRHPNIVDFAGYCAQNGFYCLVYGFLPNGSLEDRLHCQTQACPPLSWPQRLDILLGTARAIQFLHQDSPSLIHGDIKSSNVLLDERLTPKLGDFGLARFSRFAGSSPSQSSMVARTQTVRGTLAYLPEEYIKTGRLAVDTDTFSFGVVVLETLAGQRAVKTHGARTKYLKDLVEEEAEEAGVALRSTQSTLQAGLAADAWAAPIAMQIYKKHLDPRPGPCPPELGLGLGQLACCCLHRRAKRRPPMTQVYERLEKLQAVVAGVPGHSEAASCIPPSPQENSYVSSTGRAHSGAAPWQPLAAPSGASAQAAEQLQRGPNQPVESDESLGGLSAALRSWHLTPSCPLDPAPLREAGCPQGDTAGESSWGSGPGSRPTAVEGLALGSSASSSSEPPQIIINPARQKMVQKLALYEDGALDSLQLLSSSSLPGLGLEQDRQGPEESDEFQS
UniProt O00206, residues 24-839: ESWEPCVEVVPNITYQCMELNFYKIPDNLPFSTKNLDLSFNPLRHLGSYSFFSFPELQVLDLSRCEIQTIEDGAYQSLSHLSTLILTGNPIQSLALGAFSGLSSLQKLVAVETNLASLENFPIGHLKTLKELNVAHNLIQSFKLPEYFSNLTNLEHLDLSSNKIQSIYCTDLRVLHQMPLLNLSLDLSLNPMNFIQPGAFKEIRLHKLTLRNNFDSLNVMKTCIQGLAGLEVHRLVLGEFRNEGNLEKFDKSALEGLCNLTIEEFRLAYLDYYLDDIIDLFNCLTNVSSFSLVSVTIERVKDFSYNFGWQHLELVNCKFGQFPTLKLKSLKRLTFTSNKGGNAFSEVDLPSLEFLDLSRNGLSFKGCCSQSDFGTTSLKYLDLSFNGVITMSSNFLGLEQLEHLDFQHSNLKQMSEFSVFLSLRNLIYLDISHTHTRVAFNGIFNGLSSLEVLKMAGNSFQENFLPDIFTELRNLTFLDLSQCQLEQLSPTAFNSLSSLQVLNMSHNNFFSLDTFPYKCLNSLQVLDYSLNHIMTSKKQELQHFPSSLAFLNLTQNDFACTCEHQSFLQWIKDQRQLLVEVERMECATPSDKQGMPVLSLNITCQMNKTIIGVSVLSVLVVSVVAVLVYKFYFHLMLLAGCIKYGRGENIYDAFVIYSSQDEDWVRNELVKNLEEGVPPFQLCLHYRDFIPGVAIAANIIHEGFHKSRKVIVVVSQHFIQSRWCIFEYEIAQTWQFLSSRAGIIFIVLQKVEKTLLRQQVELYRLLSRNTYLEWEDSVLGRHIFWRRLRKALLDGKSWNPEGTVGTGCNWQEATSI

How the values were obtained:
[1] = biological target: endogenous MyD88 (human (endogenous in HCC1806)) (UniProt Q99836); assay: co-IP; endogenous proteins in HCC1806 lysate; MyD88 antibody or BCA2 antibody overnight at 4 °C, Protein A/G beads 2 hours; Western blot; also in cells with BCA2 knockout or BCA2 overexpression, and after LPS (500 ng/ml) for 0-30 minutes
[2] = biological target: MyD88 expressed in HEK293T for Figure 4K (UniProt Q99836); assay: co-IP; HEK293T transfected with the indicated plasmids, with overexpression of BCA2; coimmunoprecipitation and immunoblot
[3] = biological target: endogenous BCA2 (human (endogenous in HCC1806)) (UniProt Q9Y4L5); assay: co-IP; endogenous proteins in HCC1806 lysate; MyD88 antibody or BCA2 antibody overnight at 4 °C, Protein A/G beads 2 hours; Western blot; also in cells with BCA2 knockout or BCA2 overexpression, and after LPS (500 ng/ml) for 0-30 minutes

binding [1] | binding [2] | binding [3] | Substance
binds | – | – | IRAK1 (endogenous) (from UniProt P51617 1-712) (enzyme)
– | binds | – | TLR4 expressed in HEK293T for Figure 4K (from UniProt O00206 24-839) (receptor)
binds | – | binds | endogenous TLR4 (from UniProt O00206 24-839) (receptor)
